# PubChem BioAssay AID1259405, NCATS | 2018
# Test: 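Silenced genes that increase secreted GFP made by CHO cells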 (primary screen)
# System: Chinese hamster CHO-K1 ovary cells with stable secreted eGFP expression
# Reagent: single siRNA against mouse genes, 0.8 pmol siRNA per well (2 µl of 400 nM stock)
# Timing: 3 days
# Detection: 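Percent of the per-plate non-targeting control median for intracellular GFP per well by laser scanning cytometry and for cell viability by ATP luminescence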
# Scale: GFP, % of control: higher = more GFP per well, higher productivity; viability (ATP), % of control: higher = more viable cells (more ATP)
# Active means: 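a knock-down is called active if GFP reaches 120% or more of non-targeting control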
# In all, the deposit lists about 50,000 reagents; this is a part drawn at random. In the full data, about 4,000 (8%) are marked active. 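Mouse siRNA library applied to hamster cells; one well for each siRNA.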 The numbers tell different reagents against one gene apart. No sequences are given here.
gene symbol,siRNA no.,"GFP, % of control","viability (ATP), % of control",call
Casp9,1,76.1,62,inactive
Casp9,2,41.5,47.8,inactive
Casp9,3,63.9,81.4,inactive
Egln1,1,84.3,73.3,inactive
Egln1,2,82.4,90.4,inactive
Egln1,3,105,84.9,inactive
Chrng,1,79.3,114,inactive
Chrng,2,38.6,48.3,inactive
Chrng,3,88.5,81.1,inactive
Ano10,1,108,89.3,inactive
Ano10,2,105,87,inactive
Ano10,3,89.8,69,inactive
Fn1,1,69.8,74.5,inactive
Fn1,2,119,87.8,inactive
Fn1,3,76,59.8,inactive
Iqgap1,1,83.1,71,inactive
Iqgap1,2,65.8,58.9,inactive
Iqgap1,3,124,85,active
Sh2d4b,1,81.3,90.7,inactive
Sh2d4b,2,55.4,59.2,inactive
Sh2d4b,3,96.5,89.1,inactive
Wdr31,1,63.7,61.3,inactive
Wdr31,2,76.1,60.1,inactive
Wdr31,3,70,68,inactive
Rbm11,1,99.1,102,inactive
Rbm11,2,108,81.5,inactive
Tgm4,1,78.8,84,inactive
Tgm4,2,65.7,165,inactive
Tgm4,3,70.5,154,inactive
Gm9732,1,74.6,75.3,inactive
Gm9732,2,84.3,88.7,inactive
Gm9732,3,65.4,84,inactive
Taar7e,1,62.7,56.4,inactive
Taar7e,2,68,70.4,inactive
Taar7e,3,60.8,71.5,inactive
Mylip,1,49.6,46.5,inactive
Mylip,2,82.4,74.4,inactive
Mast2,1,52.3,72.9,inactive
4921509C19Rik,1,45.2,74,inactive
4921509C19Rik,2,46.4,50.7,inactive
4921509C19Rik,3,93.6,76.6,inactive
Cacna1c,1,60.4,91.4,inactive
Cacna1c,2,108,63.5,inactive
Cacna1c,3,55,46.1,inactive
Nudt19,1,74.3,83.2,inactive
Nudt19,2,68,61.5,inactive
Nudt19,3,74.8,86.2,inactive
Rnf111,1,77.7,42.8,inactive
Rnf111,2,13.2,23.6,inactive
Ercc4,1,88.1,93.4,inactive
Ercc4,2,60.1,72.7,inactive
Ercc4,3,72.7,82.3,inactive
Pnliprp2,1,90.4,88.3,inactive
Pnliprp2,2,79.6,104,inactive
Pnliprp2,3,62.3,34.9,inactive
Ngp,1,89.2,73.2,inactive
Ngp,2,77.3,66.4,inactive
Ngp,3,83.1,100,inactive

Only “viability (ATP), % of control” (10 entries from above):
Ano10 #2 = 87
Ano10 #3 = 69
Fn1 #1 = 74.5
Fn1 #2 = 87.8
Fn1 #3 = 59.8
Iqgap1 #1 = 71
Iqgap1 #2 = 58.9
Iqgap1 #3 = 85
Sh2d4b #1 = 90.7
Sh2d4b #2 = 59.2
